From publication PMC9468174
Results are given in words; binding and its absence hold for the method and conditions named. In cells and extracts the contact can be indirect. Some entries that bind do so weakly or less than the wild type.

By UniProt entry, the sequences of proteins in these tests, tags left out.
UniProt Q12923: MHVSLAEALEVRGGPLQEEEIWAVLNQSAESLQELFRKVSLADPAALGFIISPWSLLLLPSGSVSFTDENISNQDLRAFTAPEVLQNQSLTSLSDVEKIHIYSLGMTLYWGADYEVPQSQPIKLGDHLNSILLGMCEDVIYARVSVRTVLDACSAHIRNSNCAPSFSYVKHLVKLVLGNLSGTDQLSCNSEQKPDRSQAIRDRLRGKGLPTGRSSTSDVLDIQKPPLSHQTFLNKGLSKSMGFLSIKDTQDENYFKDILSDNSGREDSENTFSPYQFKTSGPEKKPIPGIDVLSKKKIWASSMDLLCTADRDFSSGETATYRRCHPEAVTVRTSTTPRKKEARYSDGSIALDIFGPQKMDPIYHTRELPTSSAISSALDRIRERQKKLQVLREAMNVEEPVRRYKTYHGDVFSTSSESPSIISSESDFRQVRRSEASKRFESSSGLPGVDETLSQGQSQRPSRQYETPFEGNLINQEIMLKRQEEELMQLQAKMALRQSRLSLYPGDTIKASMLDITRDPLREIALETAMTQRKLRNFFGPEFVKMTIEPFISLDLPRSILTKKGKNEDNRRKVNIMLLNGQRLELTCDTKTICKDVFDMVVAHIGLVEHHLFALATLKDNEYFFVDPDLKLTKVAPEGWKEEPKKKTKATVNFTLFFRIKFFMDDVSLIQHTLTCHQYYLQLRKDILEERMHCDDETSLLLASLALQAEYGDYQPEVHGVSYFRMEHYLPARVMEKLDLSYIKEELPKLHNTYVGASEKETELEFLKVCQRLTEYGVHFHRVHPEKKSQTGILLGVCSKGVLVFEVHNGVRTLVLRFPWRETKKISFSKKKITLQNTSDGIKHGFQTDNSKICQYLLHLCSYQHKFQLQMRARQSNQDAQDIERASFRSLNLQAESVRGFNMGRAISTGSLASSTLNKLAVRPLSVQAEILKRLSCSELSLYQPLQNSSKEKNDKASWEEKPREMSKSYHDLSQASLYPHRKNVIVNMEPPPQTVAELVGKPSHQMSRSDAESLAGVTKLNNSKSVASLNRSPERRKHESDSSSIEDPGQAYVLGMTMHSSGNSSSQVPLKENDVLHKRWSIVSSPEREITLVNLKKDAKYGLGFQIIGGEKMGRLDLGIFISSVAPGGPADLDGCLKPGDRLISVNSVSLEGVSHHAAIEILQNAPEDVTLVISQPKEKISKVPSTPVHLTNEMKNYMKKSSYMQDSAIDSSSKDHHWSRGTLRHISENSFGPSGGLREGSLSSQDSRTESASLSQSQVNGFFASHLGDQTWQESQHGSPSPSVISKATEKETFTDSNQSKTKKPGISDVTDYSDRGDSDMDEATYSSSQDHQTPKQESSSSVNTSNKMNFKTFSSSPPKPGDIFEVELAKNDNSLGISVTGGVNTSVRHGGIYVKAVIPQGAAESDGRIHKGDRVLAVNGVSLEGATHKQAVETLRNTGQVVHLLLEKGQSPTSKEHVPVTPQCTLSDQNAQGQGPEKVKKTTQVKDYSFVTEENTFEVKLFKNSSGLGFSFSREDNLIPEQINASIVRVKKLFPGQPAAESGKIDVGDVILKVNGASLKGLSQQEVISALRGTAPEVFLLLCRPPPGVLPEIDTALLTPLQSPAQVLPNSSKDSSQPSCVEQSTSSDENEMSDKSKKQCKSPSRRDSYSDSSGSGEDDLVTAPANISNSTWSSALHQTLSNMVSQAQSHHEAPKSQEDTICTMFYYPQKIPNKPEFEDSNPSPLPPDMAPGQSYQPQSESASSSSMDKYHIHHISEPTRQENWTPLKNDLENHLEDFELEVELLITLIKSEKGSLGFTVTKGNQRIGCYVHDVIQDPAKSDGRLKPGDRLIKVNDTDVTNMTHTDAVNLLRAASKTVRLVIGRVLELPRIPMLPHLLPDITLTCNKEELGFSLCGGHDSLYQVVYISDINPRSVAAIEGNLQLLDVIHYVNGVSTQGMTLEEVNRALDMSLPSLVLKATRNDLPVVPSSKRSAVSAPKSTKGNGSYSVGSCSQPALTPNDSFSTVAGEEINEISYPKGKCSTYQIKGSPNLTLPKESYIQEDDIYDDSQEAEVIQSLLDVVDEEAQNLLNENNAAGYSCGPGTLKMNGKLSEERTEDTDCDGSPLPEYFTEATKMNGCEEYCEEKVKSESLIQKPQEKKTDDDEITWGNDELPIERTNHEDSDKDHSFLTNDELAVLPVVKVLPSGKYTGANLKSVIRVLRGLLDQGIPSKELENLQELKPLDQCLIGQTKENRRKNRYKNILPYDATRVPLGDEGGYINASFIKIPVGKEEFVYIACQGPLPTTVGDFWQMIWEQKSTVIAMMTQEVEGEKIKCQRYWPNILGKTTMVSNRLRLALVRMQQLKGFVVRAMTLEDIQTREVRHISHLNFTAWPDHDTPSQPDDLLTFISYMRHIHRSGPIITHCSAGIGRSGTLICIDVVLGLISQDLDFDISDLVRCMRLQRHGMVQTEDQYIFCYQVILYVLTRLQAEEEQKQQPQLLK
UniProt O00560: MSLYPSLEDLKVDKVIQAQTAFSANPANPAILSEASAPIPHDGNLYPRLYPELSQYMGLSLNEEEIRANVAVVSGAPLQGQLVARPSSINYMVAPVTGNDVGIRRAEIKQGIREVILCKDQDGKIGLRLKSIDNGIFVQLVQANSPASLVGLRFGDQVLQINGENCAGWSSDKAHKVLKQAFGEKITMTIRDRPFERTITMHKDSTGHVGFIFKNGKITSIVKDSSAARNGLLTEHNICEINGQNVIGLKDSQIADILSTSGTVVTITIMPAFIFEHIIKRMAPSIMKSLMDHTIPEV

Target: PTPN13 (human (endogenous in iRPE cells derived from hUCMSCs)) (UniProt Q12923)
Assay: co-IP; lysate of iRPE cells overexpressing syntenin1-Flag; antibodies against PTPN13 or FLAG (or normal IgG) on Protein A + G magnetic beads, 4 °C overnight, washed with TBS; Western blotting

- binding: binds
Substance: syntenin1-Flag (from UniProt O00560 1-298)
